HELM strings list residues between dots; [ac] is acetyl, [am] amide, other brackets name non-standard units.
Test: general procedure: Fmoc solid-phase peptide synthesis; 2-chlorotritylchloride resin (1 g, 0.93 mmol/g, 1% DVB, 100-200 mesh); main text names Wang resin; HOBt/DIC; main text names HCTU/N,N-diisopropylethylamine
Details: for isolated yield: scale of the general procedure 1 g resin, loading capacity 0.93 mmol/g

Substance	isolated mass (whole synthesis)	isolated yield (whole synthesis, run 1)	isolated yield (whole synthesis, run 2)	conjugation yield (conjugation step)
Ac-Cys-Asp6-OH	218 mg	51%	80%	–
PEPTIDE1{[ac].C.D.D.D.D.D.D}|CHEM1{[AcacetinEMCH]}$PEPTIDE1,CHEM1,2:R3-1:R1$$$V2.0	–	–	–	71%

Reference: paper PMC9867347 (Pharmaceuticals, 2022)
